Data as given in the supplement of paper PMC6411743.
± gives the standard deviation of the averaged measurements. The list shows a part of the results, in another mix than the full data.

Chains of the proteins cited; added tags and fusions are not shown. Lines headed by an entry give the natural chain unless they say otherwise; changes in a name come on top.
UniProt O95067, whole entry, looked up: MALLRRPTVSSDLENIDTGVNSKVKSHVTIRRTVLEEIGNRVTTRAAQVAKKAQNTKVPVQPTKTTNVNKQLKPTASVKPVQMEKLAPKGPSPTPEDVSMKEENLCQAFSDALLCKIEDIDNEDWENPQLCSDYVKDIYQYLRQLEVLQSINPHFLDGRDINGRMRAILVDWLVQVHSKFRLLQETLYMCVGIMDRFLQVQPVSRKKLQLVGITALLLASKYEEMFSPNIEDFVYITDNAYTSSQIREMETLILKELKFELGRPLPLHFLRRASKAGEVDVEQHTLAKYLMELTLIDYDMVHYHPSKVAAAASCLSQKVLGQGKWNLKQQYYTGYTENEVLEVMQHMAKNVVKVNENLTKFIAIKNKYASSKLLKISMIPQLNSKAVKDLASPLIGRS
UniProt P52429: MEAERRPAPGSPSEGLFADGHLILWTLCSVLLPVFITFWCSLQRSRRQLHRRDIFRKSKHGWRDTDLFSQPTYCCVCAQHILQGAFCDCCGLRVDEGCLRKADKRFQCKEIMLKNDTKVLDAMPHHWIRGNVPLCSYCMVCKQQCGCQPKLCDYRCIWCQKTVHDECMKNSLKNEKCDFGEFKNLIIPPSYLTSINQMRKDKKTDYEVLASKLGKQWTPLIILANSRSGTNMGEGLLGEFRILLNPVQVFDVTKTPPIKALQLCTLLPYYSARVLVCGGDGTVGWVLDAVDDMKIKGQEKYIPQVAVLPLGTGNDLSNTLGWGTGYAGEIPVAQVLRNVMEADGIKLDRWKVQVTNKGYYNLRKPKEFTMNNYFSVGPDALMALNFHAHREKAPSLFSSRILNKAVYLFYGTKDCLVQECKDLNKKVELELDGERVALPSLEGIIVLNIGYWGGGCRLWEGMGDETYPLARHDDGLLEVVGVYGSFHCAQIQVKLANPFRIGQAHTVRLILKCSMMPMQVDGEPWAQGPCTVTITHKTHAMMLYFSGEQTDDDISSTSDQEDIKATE
UniProt O43716: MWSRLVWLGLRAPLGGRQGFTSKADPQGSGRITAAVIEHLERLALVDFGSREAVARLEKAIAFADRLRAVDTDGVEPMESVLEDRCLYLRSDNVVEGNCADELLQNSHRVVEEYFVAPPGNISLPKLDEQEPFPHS
UniProt Q14119: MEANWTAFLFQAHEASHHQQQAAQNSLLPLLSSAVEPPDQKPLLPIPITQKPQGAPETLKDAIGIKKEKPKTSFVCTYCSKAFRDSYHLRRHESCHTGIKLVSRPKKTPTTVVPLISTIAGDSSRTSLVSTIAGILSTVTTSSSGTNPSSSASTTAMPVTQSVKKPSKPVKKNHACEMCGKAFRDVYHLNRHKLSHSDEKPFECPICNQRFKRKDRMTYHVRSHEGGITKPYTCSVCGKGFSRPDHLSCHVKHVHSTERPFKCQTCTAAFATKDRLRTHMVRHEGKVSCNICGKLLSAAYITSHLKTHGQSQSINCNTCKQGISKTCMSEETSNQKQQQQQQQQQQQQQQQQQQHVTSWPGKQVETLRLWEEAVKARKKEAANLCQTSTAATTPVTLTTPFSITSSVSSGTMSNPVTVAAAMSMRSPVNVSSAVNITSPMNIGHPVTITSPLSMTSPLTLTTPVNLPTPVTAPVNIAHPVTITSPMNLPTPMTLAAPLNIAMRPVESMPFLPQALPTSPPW
UniProt Q6P2D0: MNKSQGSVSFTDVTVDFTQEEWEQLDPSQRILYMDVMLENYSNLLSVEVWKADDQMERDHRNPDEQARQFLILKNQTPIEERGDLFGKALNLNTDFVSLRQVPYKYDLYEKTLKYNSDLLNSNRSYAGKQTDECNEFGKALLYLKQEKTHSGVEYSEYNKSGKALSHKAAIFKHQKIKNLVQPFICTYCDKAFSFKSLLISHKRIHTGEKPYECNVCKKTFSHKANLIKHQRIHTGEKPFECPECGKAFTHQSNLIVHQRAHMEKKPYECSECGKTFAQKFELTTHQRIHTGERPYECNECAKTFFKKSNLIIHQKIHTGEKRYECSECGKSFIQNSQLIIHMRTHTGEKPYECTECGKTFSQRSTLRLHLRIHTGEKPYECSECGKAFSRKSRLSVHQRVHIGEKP
UniProt Q13492: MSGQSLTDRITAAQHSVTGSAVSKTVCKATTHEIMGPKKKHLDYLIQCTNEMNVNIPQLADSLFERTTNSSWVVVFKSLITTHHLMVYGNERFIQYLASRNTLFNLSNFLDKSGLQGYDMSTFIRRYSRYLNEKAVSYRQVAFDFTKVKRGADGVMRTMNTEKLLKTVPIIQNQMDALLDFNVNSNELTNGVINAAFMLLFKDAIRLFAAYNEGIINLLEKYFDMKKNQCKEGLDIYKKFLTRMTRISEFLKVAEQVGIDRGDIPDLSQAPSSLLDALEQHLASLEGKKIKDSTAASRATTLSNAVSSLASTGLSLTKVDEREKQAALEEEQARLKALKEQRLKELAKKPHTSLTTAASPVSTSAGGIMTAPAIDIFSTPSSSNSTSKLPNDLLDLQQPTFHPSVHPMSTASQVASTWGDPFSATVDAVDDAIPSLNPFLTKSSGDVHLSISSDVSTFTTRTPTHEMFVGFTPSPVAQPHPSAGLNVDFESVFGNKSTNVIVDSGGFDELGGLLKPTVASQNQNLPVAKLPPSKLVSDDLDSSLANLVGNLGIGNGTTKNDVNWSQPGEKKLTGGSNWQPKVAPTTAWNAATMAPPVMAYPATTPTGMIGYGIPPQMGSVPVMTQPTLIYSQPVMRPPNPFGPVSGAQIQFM
UniProt Q9HBF4: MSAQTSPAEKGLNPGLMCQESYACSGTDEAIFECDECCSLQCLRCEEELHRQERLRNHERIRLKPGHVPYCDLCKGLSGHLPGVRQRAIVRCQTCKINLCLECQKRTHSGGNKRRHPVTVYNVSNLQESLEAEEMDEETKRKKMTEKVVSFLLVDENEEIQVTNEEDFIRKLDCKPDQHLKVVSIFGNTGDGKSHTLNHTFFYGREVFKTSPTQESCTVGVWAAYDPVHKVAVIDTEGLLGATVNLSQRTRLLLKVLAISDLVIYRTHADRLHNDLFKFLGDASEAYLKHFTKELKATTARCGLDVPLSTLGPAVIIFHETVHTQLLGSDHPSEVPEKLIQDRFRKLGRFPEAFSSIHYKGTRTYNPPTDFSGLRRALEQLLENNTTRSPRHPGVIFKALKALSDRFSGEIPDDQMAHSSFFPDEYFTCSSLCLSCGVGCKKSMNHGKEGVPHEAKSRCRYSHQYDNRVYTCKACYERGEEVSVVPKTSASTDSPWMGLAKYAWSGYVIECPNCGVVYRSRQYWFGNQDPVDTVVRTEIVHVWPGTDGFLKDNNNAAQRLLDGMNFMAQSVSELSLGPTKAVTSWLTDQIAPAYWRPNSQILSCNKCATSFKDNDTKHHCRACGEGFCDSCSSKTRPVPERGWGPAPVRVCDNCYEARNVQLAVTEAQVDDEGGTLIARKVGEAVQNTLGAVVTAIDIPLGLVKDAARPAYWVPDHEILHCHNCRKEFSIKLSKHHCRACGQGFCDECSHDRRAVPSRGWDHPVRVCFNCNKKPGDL
UniProt Q9H9Q2: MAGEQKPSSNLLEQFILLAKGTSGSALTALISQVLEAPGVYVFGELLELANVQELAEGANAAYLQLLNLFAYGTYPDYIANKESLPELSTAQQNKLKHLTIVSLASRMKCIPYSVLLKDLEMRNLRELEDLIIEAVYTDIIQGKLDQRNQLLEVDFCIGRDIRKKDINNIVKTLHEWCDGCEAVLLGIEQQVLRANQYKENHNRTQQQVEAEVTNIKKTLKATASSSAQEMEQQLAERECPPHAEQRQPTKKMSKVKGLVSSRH
UniProt P21333, whole entry: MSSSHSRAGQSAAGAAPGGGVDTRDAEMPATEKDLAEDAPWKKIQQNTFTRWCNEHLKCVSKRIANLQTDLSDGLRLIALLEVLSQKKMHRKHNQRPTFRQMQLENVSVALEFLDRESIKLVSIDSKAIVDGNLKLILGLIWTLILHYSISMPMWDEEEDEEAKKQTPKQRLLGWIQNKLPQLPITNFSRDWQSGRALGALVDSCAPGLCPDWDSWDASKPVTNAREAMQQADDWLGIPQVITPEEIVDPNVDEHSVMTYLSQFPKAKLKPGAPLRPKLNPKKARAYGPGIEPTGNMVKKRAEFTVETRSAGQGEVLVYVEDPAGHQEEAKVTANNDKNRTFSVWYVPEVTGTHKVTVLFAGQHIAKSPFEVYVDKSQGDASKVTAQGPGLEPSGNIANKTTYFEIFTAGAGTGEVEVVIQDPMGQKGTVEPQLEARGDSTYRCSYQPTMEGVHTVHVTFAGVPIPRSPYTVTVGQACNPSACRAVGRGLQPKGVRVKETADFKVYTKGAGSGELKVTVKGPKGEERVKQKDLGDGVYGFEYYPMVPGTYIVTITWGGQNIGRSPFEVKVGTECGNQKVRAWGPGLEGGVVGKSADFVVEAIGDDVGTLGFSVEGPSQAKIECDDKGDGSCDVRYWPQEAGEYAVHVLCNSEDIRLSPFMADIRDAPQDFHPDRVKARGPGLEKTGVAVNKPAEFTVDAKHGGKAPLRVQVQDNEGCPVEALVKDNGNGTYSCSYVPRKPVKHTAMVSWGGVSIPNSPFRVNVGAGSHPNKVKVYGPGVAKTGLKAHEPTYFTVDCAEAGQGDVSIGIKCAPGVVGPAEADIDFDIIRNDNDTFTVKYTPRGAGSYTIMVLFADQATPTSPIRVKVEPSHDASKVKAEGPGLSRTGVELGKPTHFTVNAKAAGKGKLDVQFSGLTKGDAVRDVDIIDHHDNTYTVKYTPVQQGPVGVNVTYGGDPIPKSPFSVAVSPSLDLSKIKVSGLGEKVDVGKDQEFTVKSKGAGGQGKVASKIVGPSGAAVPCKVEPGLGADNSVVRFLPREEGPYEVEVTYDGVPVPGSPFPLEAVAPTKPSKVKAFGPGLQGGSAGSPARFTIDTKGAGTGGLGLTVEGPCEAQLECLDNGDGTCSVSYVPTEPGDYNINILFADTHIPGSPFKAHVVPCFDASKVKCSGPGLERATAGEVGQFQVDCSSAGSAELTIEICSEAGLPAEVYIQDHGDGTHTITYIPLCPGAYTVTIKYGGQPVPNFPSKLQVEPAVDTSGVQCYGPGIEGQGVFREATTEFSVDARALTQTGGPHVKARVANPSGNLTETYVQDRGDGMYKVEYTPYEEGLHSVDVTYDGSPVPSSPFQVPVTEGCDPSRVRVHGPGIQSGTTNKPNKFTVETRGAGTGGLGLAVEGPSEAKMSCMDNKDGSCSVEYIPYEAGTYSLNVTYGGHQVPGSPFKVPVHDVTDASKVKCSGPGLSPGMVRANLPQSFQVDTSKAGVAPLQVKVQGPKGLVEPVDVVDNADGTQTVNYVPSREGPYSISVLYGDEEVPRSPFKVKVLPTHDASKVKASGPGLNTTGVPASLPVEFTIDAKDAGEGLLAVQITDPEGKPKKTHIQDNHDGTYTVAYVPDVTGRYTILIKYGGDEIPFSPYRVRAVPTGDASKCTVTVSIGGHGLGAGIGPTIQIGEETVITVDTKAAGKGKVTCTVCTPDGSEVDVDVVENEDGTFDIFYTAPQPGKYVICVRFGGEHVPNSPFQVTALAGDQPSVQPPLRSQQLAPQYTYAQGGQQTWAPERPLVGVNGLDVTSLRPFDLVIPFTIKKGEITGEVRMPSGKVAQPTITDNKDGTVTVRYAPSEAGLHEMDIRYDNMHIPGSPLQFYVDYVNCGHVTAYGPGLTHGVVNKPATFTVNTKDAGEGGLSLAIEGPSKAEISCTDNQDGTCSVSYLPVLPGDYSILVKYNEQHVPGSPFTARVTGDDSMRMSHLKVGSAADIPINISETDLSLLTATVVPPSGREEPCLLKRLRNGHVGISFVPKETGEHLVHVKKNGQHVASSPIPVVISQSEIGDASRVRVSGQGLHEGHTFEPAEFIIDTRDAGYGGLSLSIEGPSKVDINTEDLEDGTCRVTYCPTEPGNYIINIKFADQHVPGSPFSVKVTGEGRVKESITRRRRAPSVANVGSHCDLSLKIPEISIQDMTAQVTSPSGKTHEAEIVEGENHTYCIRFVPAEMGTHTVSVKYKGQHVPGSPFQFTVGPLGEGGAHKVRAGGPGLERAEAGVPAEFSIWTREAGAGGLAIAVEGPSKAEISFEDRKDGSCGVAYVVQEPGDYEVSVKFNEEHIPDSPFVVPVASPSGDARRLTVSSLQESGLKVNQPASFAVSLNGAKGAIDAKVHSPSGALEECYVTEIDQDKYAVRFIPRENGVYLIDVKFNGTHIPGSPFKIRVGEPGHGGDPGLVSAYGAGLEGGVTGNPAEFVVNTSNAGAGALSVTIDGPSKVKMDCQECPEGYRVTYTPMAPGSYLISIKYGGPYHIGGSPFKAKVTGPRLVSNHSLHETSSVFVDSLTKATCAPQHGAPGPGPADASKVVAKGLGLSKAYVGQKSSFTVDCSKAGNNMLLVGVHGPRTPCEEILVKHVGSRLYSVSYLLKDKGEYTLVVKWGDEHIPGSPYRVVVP
UniProt P63027, whole entry, looked up: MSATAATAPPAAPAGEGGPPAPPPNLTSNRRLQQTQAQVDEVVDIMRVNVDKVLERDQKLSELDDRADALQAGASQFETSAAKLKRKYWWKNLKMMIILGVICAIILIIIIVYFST

Compound: Nc1ncnc2c1ncn2[C@@H]1O[C@H](COP(=O)(O)OP(=O)(O)NP(=O)(O)O)[C@@H](O)[C@H]1O [adenylyl imidodiphosphate]
Assay: NP40-soluble protein abundance relative to vehicle (solubility fold change) (ratio); higher = more soluble protein in presence of AMP-PNP
In short: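 Jurkat crude lysate prepared with a Dounce homogeniser was treated at eight concentrations spanning 0.1 to 10 mM, 10 min at room temperature then 3 min at 37 °C. Solubilisation with 0.8% NP40 and benzonase and ultracentrifugation preceded TMT labelling of the supernatant for LC-MS/MS. Fold change against the detergent-processed vehicle was determined per replicate from vsn-normalised intensities, across three independent experiments.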

Target | NP40-soluble protein abundance (concentration: 1mM) | NP40-soluble protein abundance (concentration: 2mM) | NP40-soluble protein abundance (concentration: 4mM) | NP40-soluble protein abundance (concentration: 6mM) | NP40-soluble protein abundance (concentration: 8mM) | NP40-soluble protein abundance (concentration: 10mM)
H1UBN3 and related entries (UniProt O95067+H1UBN3) | 1.011 ± 0.008 | 1.03 ± 0.016 | 1 ± 0.02 | 0.982 ± 0.018 | 1.03 ± 0.063 | 1.016 ± 0.0047
J3KPH8 and related entries (UniProt Q8WUI4) | 0.979 ± 0.04 | 1 ± 0.027 | 1 ± 0.026 | 0.98 ± 0.024 | 0.998 ± 0.067 | 0.9557 ± 0.0038
J3KPF0 (UniProt Q9Y4D8) | 1.02 ± 0.058 | 1.01 ± 0.054 | 1.01 ± 0.038 | 0.984 ± 0.057 | 0.982 ± 0.076 | 0.989 ± 0.088
J3KNL6 and related entries (UniProt O15027) | 0.962 ± 0.069 | 0.957 ± 0.063 | 0.932 ± 0.12 | 0.862 ± 0.1 | 0.844 ± 0.13 | 0.849 ± 0.14
I3L112 and related entries (UniProt P52429) | 1.01 ± 0.041 | 0.963 ± 0.064 | 1.03 ± 0.021 | 0.973 ± 0.021 | 1.014 ± 0.0051 | 0.99 ± 0.02
H0YIV9 and related entries (UniProt O43716+H0YIV9) | 0.973 ± 0.038 | 1.02 ± 0.038 | 1.01 ± 0.03 | 0.988 ± 0.012 | 0.977 ± 0.015 | 0.962 ± 0.013
J3QSH4 and related entries (UniProt Q14119) | 0.977 ± 0.07 | 1.01 ± 0.1 | 0.974 ± 0.079 | 1.04 ± 0.1 | 0.999 ± 0.092 | 1.07 ± 0.077
J3KNQ1 and related entries (UniProt Q6P2D0) | 0.99 ± 0.025 | 0.986 ± 0.053 | 0.963 ± 0.056 | 0.992 ± 0.071 | 0.982 ± 0.068 | 0.95 ± 0.031
H7BXD5 and related entries (UniProt P28676) | 0.99 ± 0.028 | 0.985 ± 0.059 | 0.982 ± 0.069 | 1.14 ± 0.018 | 1.09 ± 0.09 | 1.07 ± 0.07
H0YEH1 and related entries (UniProt Q13492) | 1.01 ± 0.03 | 1.02 ± 0.061 | 1.048 ± 0.008 | 1.06 ± 0.065 | 1.09 ± 0.049 | 1.12 ± 0.021
G3V5N8 and related entries (UniProt Q9HBF4) | 0.991 ± 0.012 | 0.986 ± 0.035 | 0.987 ± 0.054 | 0.96 ± 0.021 | 0.968 ± 0.0098 | 0.938 ± 0.047
J3KQ34 and related entries (UniProt Q9H9Q2) | 0.911 ± 0.065 | 0.94 ± 0.028 | 0.901 ± 0.043 | 0.895 ± 0.045 | 0.882 ± 0.039 | 0.813 ± 0.07
H0Y5C6 and related entries (UniProt P21333) | 0.993 ± 0.022 | 1.01 ± 0.026 | 0.958 ± 0.017 | 0.967 ± 0.026 | 0.939 ± 0.016 | 0.941 ± 0.015
G3XAN4 and related entries (UniProt Q15629) | 1.03 ± 0.017 | 1.05 ± 0.079 | 1.02 ± 0.086 | 1.05 ± 0.058 | 1.06 ± 0.068 | 1.05 ± 0.082
J3QRU4 and related entries (UniProt P63027+L7N2F9+J3QRU4) | 1.01 ± 0.049 | 1.01 ± 0.062 | 0.969 ± 0.054 | 0.968 ± 0.038 | 0.959 ± 0.03 | 0.945 ± 0.022

Laid out differently: entries from further up.
Target,NP40-soluble protein abundance (concentration: 1mM),NP40-soluble protein abundance (concentration: 2mM),NP40-soluble protein abundance (concentration: 4mM),NP40-soluble protein abundance (concentration: 6mM),NP40-soluble protein abundance (concentration: 8mM),NP40-soluble protein abundance (concentration: 10mM)
H0YIV9 and related entries (UniProt O43716+H0YIV9),0.973 ± 0.038,1.02 ± 0.038,1.01 ± 0.03,0.988 ± 0.012,0.977 ± 0.015,0.962 ± 0.013
J3QSH4 and related entries (UniProt Q14119),0.977 ± 0.07,1.01 ± 0.1,0.974 ± 0.079,1.04 ± 0.1,0.999 ± 0.092,1.07 ± 0.077
J3KNQ1 and related entries (UniProt Q6P2D0),0.99 ± 0.025,0.986 ± 0.053,0.963 ± 0.056,0.992 ± 0.071,0.982 ± 0.068,0.95 ± 0.031
